Laboratory results reported in patent publication US8841315B2, “Inhibitors of protein kinases” (Ingenium Pharmaceuticals GmbH, priority 2007, dated 2014).
Some of these results come from one statement about several compounds together.

Chains of the proteins cited; added tags and fusions are not shown. Lines headed by an entry give the natural chain unless they say otherwise; changes in a name come on top.
UniProt Q00534, whole entry: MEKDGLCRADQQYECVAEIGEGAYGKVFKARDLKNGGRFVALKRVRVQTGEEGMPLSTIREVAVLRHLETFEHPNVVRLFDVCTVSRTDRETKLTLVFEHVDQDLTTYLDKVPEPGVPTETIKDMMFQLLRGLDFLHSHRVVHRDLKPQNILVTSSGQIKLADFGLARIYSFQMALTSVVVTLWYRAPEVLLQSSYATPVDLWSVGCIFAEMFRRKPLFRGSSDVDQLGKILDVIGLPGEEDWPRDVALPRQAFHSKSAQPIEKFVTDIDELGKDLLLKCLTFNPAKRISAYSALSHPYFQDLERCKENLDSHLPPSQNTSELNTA
UniProt P50750, whole entry: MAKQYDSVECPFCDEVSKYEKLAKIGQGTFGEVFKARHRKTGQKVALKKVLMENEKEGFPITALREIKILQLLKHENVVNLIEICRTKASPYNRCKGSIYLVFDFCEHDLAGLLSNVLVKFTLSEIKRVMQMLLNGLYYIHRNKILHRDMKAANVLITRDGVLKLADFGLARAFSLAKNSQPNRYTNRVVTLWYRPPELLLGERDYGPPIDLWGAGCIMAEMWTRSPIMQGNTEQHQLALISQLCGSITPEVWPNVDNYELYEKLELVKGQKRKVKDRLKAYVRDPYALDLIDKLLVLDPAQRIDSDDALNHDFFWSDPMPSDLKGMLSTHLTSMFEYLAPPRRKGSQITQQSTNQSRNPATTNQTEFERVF
UniProt Q00535, whole entry: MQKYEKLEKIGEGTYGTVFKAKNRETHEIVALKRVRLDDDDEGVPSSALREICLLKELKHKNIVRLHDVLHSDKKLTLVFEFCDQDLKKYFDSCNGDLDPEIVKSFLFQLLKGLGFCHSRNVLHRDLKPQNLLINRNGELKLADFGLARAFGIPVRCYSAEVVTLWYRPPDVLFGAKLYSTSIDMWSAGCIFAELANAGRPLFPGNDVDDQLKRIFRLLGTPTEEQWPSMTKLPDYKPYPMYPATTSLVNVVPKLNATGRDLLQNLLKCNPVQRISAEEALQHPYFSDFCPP
UniProt P11802: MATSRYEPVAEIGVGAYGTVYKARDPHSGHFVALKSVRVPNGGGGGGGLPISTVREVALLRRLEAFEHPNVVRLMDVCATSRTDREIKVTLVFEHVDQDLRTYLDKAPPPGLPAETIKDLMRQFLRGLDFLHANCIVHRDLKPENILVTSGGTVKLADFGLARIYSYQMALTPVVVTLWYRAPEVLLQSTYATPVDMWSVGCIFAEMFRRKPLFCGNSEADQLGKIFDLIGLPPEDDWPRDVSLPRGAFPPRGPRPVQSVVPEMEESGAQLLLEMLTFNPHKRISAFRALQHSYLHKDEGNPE

Assays:
Experiment in all cases: In vitro kinase inhibition assay (33P FlashPlate)
Format in all cases: biochemical
Conditions in all cases: bounds printed as 1 nM and 10 μM
CDK6/CycD1 = target: T1, CDK6/CycD1 (Homo sapiens, UniProt Q00534)
T1 construct: host or cells: Sf9 insect cells (baculovirus)

CDK2/CycA = target: T2, CDK2/CycA (Homo sapiens, UniProt P24941)
T2 construct: host or cells: Sf9 insect cells (baculovirus)

CDK9/CycT = target: T3, CDK9/CycT (Homo sapiens, UniProt P50750)
T3 construct: host or cells: Sf9 insect cells (baculovirus)

CDK5/p35NCK = target: T4, CDK5/p35NCK (Homo sapiens, UniProt Q00535)
T4 construct: host or cells: Sf9 insect cells (baculovirus)

CDK4/CycD1 = target: T5, CDK4/CycD1 (Homo sapiens, UniProt P11802)
T5 construct: host or cells: Sf9 insect cells (baculovirus)

Measured: IC50

COc1ccccc1-c1ccnc(Nc2ccc(CS(N)(=O)=O)cc2)n1 [Compound 1, {4-[4-(2-Methoxy-phenyl)-pyrimidin-2-ylamino]-phenyl}-methanesulfonamide]
0.001 µM and 10 µM: all assays above

CNS(=O)(=O)Cc1ccc(Nc2nccc(-c3ccccc3OC)n2)cc1 [Compound 2, C-{4-[4-(2-Methoxy-phenyl)-pyrimidin-2-ylamino]-phenyl}-N-methyl-methanesulfonamide]
0.001 µM and 10 µM: all assays above

COc1ccccc1-c1cc(C)nc(Nc2ccc(CS(N)(=O)=O)cc2)n1 [Compound 3, {4-[4-(2-Methoxy-phenyl)-6-methyl-pyrimidin-2-ylamino]-phenyl}-methanesulfonamide]
0.001 µM and 10 µM: all assays above
